# Experimental data as given in patent US10618935B2 (Industrial Technology Research Institute, priority 2015, dated 2020).
# Experiment: general procedure: solution-phase peptide synthesis; HBTU or HATU with DIPEA
# Settings: late stage modification step
substance,measurement,value
MC-SAA5-Val-Cit-APEA-AF,step yield,63%
